# According to PubChem BioAssay AID651768 (National Center for Advancing Translational Sciences (NCATS), 2012):
# The chains behind the UniProt entries cited, without tags or fusion partners.
# UniProt Q14191, whole entry, looked up: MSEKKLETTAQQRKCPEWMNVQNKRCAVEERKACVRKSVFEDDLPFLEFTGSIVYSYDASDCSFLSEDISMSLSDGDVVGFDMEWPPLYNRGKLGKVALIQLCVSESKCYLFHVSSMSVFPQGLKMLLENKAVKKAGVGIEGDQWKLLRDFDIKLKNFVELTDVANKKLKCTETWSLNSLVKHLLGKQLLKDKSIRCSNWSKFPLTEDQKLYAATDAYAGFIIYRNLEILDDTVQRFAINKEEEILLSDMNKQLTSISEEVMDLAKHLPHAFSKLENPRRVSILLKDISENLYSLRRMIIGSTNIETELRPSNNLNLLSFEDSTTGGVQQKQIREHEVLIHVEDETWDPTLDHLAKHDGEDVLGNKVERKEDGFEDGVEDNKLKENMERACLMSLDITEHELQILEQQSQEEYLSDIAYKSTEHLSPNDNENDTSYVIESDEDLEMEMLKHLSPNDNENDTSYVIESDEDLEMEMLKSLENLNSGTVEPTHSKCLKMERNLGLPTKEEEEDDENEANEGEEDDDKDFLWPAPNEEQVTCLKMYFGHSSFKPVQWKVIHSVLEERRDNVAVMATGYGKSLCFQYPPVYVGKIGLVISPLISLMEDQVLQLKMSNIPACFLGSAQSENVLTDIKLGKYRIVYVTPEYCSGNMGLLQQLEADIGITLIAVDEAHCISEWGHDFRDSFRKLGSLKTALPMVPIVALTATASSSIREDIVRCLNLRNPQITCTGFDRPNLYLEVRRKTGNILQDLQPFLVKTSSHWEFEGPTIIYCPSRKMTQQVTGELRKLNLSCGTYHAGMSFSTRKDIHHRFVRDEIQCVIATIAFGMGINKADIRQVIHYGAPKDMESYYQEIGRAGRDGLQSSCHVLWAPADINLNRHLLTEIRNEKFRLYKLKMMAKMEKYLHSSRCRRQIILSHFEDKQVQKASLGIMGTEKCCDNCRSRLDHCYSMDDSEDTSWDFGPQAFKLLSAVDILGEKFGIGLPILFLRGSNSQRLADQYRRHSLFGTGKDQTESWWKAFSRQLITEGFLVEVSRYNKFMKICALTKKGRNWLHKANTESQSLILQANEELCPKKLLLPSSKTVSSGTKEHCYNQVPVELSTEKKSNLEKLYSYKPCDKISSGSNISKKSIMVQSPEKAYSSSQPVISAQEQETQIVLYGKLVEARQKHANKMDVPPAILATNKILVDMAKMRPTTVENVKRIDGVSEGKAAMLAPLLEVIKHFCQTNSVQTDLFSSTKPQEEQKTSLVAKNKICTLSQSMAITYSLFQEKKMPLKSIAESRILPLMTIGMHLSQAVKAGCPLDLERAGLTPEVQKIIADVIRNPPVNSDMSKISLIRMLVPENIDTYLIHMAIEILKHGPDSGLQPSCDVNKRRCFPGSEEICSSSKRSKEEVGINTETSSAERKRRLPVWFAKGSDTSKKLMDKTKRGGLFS
# Out of some 360,000 compounds screened, about 1,700 (0.47%) were called active. The inconclusive results got no clear call from the source; some entries with a clear call stand among them for comparison. Calls follow the shape of the dose curve; as a rule, active = well fitted inhibition curve with a large enough effect; inconclusive = small, poorly fitted or top-dose-only effect; inactive = no such curve, though single readings can be large or run the other way. A potency beside an inconclusive call is a rough fit, not a confirmed value. The source holds several records for some structures; these can differ, active in one and inactive in another.
# Target: Bifunctional 3'-5' exonuclease/ATP-dependent helicase WRN (Homo sapiens) (UniProt Q14191)
# Assay: qHTS for Inhibitors of WRN Helicase; also: nearly all actives have a fitted effect of over 55% in size
# Conditions: WRN helicase unwinding, fluorescent forked duplex, kinetic; activity change, negative = inhibition: at 114 µM (top of the series) unless noted
# Method in brief: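 Kinetic red-fluorescence monitoring (525/598 nm) tracks WRN helicase activity after 100 nM fluorophore-quencher forked duplex and 2 mM ATP are added to 20 nM enzyme pretreated 15 min at room temperature with compound.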
# % is scaled to controls: 0 for no effect and ±100 for the full control effect; potency is read from the fitted curve at half-maximal effect.
Structure (SMILES),Potency,"activity change, negative = inhibition"
CCCCOc1ccc(C(=O)NCC(=O)NC(C)CCc2ccccc2)cc1 (stereo not given),"inconclusive: 79.4 µM [inhibitor, single point]",–
CNCc1ccccc1Sc1ccc(O)c(O)c1,"inconclusive: 56.2 µM [inhibitor, partial curve]",–
CCCCn1c(SCC(=O)c2ccccc2)nc2ccsc2c1=O,inactive,–
COc1ccc(CN(C)CC(=O)Nc2ccc(Cl)cc2C(F)(F)F)c(OC)c1,"inconclusive: 22.4 µM [inhibitor, full curve, poor fit]",–
NC(=O)c1cc(S(=O)(=O)NCCCc2ccccc2)cs1,inactive,–
COc1ccc(-c2ccc(CCC(=O)O)o2)cc1,"inconclusive: 50.1 µM [inhibitor, partial curve]",–
O=C(CSc1nc2ccc(NC(=O)c3ccccc3C(=O)O)cc2s1)Nc1ccc(F)c([N+](=O)[O-])c1,"inconclusive: 70.8 µM [inhibitor, single point]",–
Cc1occc1-c1nnc(SCC(=O)NC2CCCC2)n1C,inactive,–
CSc1ccc(CN2CCCN(C)CC2)cc1,inactive,–
O=C(CCNS(=O)(=O)c1ccccc1C(F)(F)F)NCCCSc1ccccc1,"inconclusive: 89.1 µM [inhibitor, single point]",–
C=C1C(=O)OC2C=C(CO)CCC=C(CO)CC(OC(=O)C(C)C)C12 (stereo not given),"inconclusive: 28.2 µM [inhibitor, single point]",–
O=C(CCN1C(=O)/C(=C/c2ccc(Cl)cc2)SC1=S)Nc1cccc(C(=O)O)c1,active: 56.2 µM,–
O=C(/C=C/c1cccs1)Nc1scc(-c2ccccc2)c1C(=O)O,active: 31.6 µM,–
C/C(=N/NC(=O)c1cc(O)c(O)c(O)c1)c1ccc([N+](=O)[O-])cc1,"inconclusive: 22.4 µM [inhibitor, full curve]",–
COc1cccc2c1C(=O)c1ccc3ccccc3c1C2=O,–,inconclusive: -41% [inhibitor] [at 57.1 µM]
O=C(COC(=O)C1=NN(c2ccccc2)C(=O)CC1)Nc1nc(-c2ccc(F)cc2)cs1,"inconclusive: 22.4 µM [inhibitor, full curve, poor fit]",–
COc1ccc2[nH]c(-c3ccccc3)cc2c1,"inconclusive: 89.1 µM [inhibitor, single point]",–
CCc1ccccc1NS(=O)(=O)c1ccc2[nH]cc(C(=O)NC3CCCC3)c(=O)c2c1,inactive,–
COc1ccc(C(=O)OCC(=O)Nc2sccc2C(N)=O)cc1OC,inactive,–
COc1ccc(OC)c(CCNC(=O)CSc2ccsc2[N+](=O)[O-])c1,inactive,–
O=C(Cc1ccccc1)Nc1cccc([N+](=O)[O-])c1,inactive,–
O=C(COc1cccnc1[N+](=O)[O-])Nc1ncc(Cl)cc1Cl,"inconclusive: 79.4 µM [inhibitor, partial curve]",–
O=C(CN1C(=O)c2ccccc2C1=O)OCC(=O)N1CCCCC1,"inconclusive: 22.4 µM [inhibitor, full curve, poor fit]",–
Cc1cc(NS(=O)(=O)c2ccc(NC(=O)/C=C/c3ccco3)cc2)nc(C)n1,"inconclusive: 50.1 µM [inhibitor, partial curve]",–

Structure (SMILES),Potency,"activity change, negative = inhibition"
CC(C)CNC(=O)c1cccc(NC(=O)c2ccc(NC(=O)c3ccco3)cc2)c1,inactive,–
O=[N+]([O-])c1cc([N+](=O)[O-])c2cccnc2c1Oc1ccccc1O,"inconclusive: 7.52 µM [inhibitor, single point]",–
CCNC(=O)NC(=O)COC(=O)c1ccccc1SCC(=O)NC(=O)NCC,"inconclusive: 79.4 µM [inhibitor, single point]",–
COc1ccc(-c2noc(=O)n2Cc2ccccc2Cl)cc1,inactive,–
O=C(O)CN=C1CC(c2ccccc2)CC(=O)/C1=C(/O)CCCN1C(=O)c2ccccc2C1=O (stereo not given),inactive,–
C=CC1=C(C(=O)O)N2C(=O)[C@@H](NC(=O)/C(=N\OCC(=O)O)c3csc(N)n3)[C@H]2SC1,"inconclusive: 2.99 µM [inhibitor, partial curve]",–
O=C(O)CCCCCNS(=O)(=O)c1ccc2c3c(cccc13)C(=O)N2,"inconclusive: 35.5 µM [inhibitor, partial curve]",–
CC(C)c1ccc(CNC(=O)CCc2ccccc2)cc1,inactive,–
O=C(O)c1cccc(NC(=S)N/N=C/c2ccccn2)c1,inactive,–
C=CCOc1ccc(C(=O)Nc2ccc3c(c2)n(C)c(=O)n3C)cc1,"inconclusive: 10 µM [inhibitor, full curve, poor fit]",–
C[C@H](CO)N1C[C@H](C)[C@@H](CN(C)C(=O)c2ccncc2)OCc2cnnn2CCCC1=O,inactive,–
O=C(N/N=C/c1c(-c2ccccc2)[nH]c2ccccc12)c1cccnc1,inactive,–
O=S1(=O)C=C(SCc2ccc(Cl)c(Cl)c2)Nc2ccccc21,–,inconclusive: -44.7% [inhibitor] [at 57.1 µM]
O=C(COC(=O)c1cnc(Cl)c(Cl)c1)NCc1cccs1,"inconclusive: 89.1 µM [inhibitor, single point]",–
COc1ccc(C(=S)N2CCN(c3cccc(Cl)c3)CC2)cc1,"inconclusive: 3.98 µM [inhibitor, full curve, poor fit]",–
O=C(O)c1cc(-c2ccc(/C=C3/SC(=S)N(Cc4ccccc4)C3=O)o2)ccc1Cl,"inconclusive: 50.1 µM [inhibitor, partial curve]",–
CCc1nnc(NC(=O)c2cc(-c3ccco3)nc3ccccc23)s1,active: 35.5 µM,–
Cc1ccc(C(=O)/C=C/c2ccc(-c3ccc(C)cc3)o2)cc1,"inconclusive: 56.2 µM [inhibitor, partial curve]",–
CCNc1ccc(Br)cc(C(=O)/C=C/c2ccc3c(c2)OCO3)c1=O,"inconclusive: 35.5 µM [inhibitor, partial curve]",–
COc1cc(/C=N/Nc2nc(=O)[nH]nc2C)cc(OC)c1O,"inconclusive: 39.8 µM [inhibitor, single point]",–
O=C(COc1ccccc1F)Nc1nc(-c2ccccn2)cs1,"inconclusive: 10 µM [inhibitor, partial curve]",–
COc1ccc(/C=N/NC(=O)c2[nH]c3ccc(Br)cc3c2-c2ccccc2)c(C(=O)O)c1OC,"inconclusive: 22.4 µM [inhibitor, full curve]",–
CCOC(=O)C1=C(O)/C(=C\c2ccc(CNC(=O)C(=O)Nc3ccccc3)o2)N=C1C,"inconclusive: 56.2 µM [inhibitor, partial curve]",–
CCN1/C(=C/c2ccc3ccccc3[n+]2CC)C=Cc2ccccc21,active: 44.7 µM,–

Structure (SMILES),Potency,"activity change, negative = inhibition"
CCN(C(=O)CN1CCN(c2ccc(O)cc2)CC1)c1c(N)n(Cc2ccccc2)c(=O)[nH]c1=O,inactive,–
CCCCC1(CC)COC(c2ccccc2)OC1 (stereo not given),inactive,–
CC(=O)ON=C1C=CC(=C(C#N)c2ccccc2)C=C1,"inconclusive: 50.1 µM [inhibitor, partial curve]",–
CCc1nnc(SCC(=O)Nc2ccccc2)n1CC1CCCO1 (stereo not given),"inconclusive: 89.1 µM [inhibitor, single point]",–
Cc1ccn2c(=O)nc(SCC(=O)NCc3ccc4c(c3)OCO4)nc2c1,"inconclusive: 63.1 µM [inhibitor, partial curve, poor fit]",–
CCCCN(CCCC)c1ccc(C(=O)c2ccccc2C(=O)O)c(O)c1,inactive,–
CCOC(=O)c1sc(=S)n(C)c1NC(=O)c1ccc(F)cc1,"inconclusive: 79.4 µM [inhibitor, partial curve]",–
Cc1cc2nc3c(=O)[nH]c(=O)[nH]c3nc2c([N+](=O)[O-])c1N,active: 50.1 µM,–
CCCCCCN1C[C@H](n2cc(C3CC3)nn2)[C@@H](O)C[C@@H]1c1ccc(C)cc1,inactive,–
CC1=CC(C)(C)N2C(=O)C(=Nc3ccc(O)cc3)c3cccc1c32,"inconclusive: 70.8 µM [inhibitor, single point]",–
N#Cc1c(-c2ccccc2)cc(-c2ccccc2)nc1SCC(=O)NCC(=O)O,inactive,–
O=C(Nc1cccc2c(=O)[nH][nH]c(=O)c12)c1ccc([N+](=O)[O-])cc1,"inconclusive: 56.2 µM [inhibitor, partial curve]",–
CC(/C=C1\SC(=S)N(c2ccc(C(=O)O)cc2)C1=O)=C\c1ccccc1,"inconclusive: 89.1 µM [inhibitor, single point]",–
O=C(O)c1cc(NC(=O)c2ccc3c(c2)C(=O)N(Cc2cccnc2)C3=O)cc(C(=O)O)c1,"inconclusive: 39.8 µM [inhibitor, partial curve]",–
CNc1ccc(/C=C(\CCC(=O)O)c2nc3ccccc3s2)cc1[N+](=O)[O-],"inconclusive: 35.5 µM [inhibitor, partial curve, poor fit]",–
Cc1cccn2c(=O)c3cc(C#N)c(=NC(=O)c4ccccc4)n(Cc4ccco4)c3nc12,active: 50.1 µM,–
CCc1nnc(NC(=O)CSc2nc3[nH]ncc3c(=O)[nH]2)s1,"inconclusive: 39.8 µM [inhibitor, single point]",–
CCCC(=O)Nc1ccccc1NC(=O)CN(C)S(=O)(=O)c1ccccc1,inactive,–
CC1(OC(=O)c2cccs2)C(=O)C=C2C=C3CCCN3C=C2C1=O (stereo not given),"inconclusive: 50.1 µM [inhibitor, partial curve]",–
CCOC(=O)c1c(C)oc2c1c(CN1CCN(C(=O)OCC)CC1)c(O)c1ccccc12,"inconclusive: 100 µM [inhibitor, partial curve, poor fit]",–
CC1(C)Cc2c(C#N)c(N3CCN(C(=O)c4ccco4)CC3)nc(-c3ccco3)c2CS1,active: 39.8 µM,–
COc1ccc2oc(C(=O)Nc3nc(-c4ccccn4)cs3)c(C)c2c1,inactive,–

# Reformatted tab-delimited: part of the list above.
Structure (SMILES)	Potency	activity change, negative = inhibition
Cc1ccn2c(=O)nc(SCC(=O)NCc3ccc4c(c3)OCO4)nc2c1	inconclusive: 63.1 µM [inhibitor, partial curve, poor fit]	–
Cc1cc2nc3c(=O)[nH]c(=O)[nH]c3nc2c([N+](=O)[O-])c1N	active: 50.1 µM	–
COc1ccc2oc(C(=O)Nc3nc(-c4ccccn4)cs3)c(C)c2c1	inactive	–
